These are yes or no findings as the source states them, for the method shown. Binding seen in cells or lysates may run through a third protein. A yes stands for co-enrichment or nearness to the bait. Other partners may have been found. For some assays here: Tags and fused reporters may be left off the sequences shown. Blank lines part the entries; values can stand above or below the molecule they belong to.
What was measured:
[1] = biological target: T1, GFP-tagged Rcd4 (pAct5C-Rcd4-GFP) (Drosophila melanogaster) (UniProt Q9VLM6); assay: affinity purification with mass spectrometry; GFP-Trap magnetic agarose beads on lysate of D.Mel-2 cells stably expressing the GFP-tagged bait; extraction buffer 75 mM Na-Hepes pH 7.5, 150 mM NaCl, 2 mM MgCl2, 2 mM EGTA, 0.1% NP-40; with or without okadaic acid; Orbitrap-LTQ, Mascot
T1 sequence: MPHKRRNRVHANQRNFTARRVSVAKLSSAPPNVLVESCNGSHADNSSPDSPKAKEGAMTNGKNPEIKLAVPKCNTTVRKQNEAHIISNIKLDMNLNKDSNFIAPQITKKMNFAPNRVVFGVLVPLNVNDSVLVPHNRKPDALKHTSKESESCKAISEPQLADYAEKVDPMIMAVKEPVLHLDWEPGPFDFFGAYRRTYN

The chains behind the UniProt entries cited, without tags or fusion partners.
UniProt A1Z8X3: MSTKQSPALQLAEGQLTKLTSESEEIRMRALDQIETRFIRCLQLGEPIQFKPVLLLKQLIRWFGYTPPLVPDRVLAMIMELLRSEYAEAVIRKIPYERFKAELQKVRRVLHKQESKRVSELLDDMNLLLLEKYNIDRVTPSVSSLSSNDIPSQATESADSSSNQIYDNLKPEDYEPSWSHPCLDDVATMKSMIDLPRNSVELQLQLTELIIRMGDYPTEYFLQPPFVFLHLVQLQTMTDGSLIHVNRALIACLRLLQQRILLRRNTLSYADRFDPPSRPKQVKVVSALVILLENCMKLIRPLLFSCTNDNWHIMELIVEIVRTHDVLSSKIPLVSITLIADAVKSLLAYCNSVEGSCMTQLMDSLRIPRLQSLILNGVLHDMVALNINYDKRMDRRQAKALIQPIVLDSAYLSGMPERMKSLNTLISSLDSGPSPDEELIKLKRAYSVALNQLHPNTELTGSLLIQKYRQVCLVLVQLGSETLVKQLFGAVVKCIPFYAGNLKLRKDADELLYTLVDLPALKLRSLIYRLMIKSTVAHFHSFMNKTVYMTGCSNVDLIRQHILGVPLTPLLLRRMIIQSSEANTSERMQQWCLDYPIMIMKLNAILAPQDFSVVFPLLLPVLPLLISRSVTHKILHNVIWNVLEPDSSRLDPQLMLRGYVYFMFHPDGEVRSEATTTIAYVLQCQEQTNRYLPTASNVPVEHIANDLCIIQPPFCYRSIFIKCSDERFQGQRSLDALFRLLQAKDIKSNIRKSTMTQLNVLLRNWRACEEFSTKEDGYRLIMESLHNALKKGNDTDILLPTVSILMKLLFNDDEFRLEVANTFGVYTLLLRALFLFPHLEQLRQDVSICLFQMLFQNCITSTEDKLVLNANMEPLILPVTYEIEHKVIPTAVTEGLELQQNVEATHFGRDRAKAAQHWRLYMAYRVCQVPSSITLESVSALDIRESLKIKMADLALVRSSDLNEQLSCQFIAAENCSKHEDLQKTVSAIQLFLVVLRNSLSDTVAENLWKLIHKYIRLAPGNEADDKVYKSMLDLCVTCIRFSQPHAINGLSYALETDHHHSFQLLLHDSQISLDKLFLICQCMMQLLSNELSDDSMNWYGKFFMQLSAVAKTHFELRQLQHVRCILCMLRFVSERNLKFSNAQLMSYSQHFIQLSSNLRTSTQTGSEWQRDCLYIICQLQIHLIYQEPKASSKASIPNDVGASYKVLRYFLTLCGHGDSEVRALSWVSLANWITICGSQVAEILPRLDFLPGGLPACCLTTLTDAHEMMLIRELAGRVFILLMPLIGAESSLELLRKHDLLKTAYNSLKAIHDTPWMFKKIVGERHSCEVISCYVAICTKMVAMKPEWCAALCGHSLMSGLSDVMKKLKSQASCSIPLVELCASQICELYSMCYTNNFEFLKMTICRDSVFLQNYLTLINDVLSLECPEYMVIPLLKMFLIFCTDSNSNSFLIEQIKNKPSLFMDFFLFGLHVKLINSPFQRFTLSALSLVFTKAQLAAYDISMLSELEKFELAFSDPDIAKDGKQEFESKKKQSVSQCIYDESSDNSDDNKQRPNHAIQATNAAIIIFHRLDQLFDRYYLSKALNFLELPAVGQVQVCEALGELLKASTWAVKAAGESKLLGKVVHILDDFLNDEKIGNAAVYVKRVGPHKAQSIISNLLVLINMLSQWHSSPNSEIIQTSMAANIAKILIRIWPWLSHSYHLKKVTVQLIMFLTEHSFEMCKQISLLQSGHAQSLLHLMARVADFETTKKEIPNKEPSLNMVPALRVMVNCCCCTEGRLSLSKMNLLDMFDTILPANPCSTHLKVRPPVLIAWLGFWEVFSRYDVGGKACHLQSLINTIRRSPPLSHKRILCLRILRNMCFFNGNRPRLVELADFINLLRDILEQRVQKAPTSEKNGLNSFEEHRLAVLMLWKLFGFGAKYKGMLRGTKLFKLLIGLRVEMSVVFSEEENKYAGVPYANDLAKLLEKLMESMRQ

[2] = biological target: GFP-tagged Ana3 (pAct5C-GFP-Ana3) (Drosophila melanogaster) (UniProt A1Z8X3); assay: as above

binding [1]: binds
Molecule: Ana3 (endogenous, D.Mel-2 cells) (from UniProt A1Z8X3 1-1977)

binding [2]: binds
B1: Rcd4 (endogenous, D.Mel-2 cells) (protein, UniProt Q9VLM6 1-199)
chain: T1 sequence
